Literature values in patent US20160324856A1, “USE OF SGC STIMULATORS FOR THE TREATMENT OF NEUROMUSCULAR DISORDERS” (IRONWOOD PHARMACEUTICALS, INC., priority 2014, published 2016).
At least one structure is not confirmed: it was looked up by name or label, or the drawing left a doubt.

What was measured:
[1] = test system: mdx mouse
[2] = test system: patients with BMD; conditions: single oral dose of 20 mg, double-blind randomized placebo-controlled crossover trial

Structure (SMILES): CN1CC(=O)N2[C@H](c3ccc4c(c3)OCO4)c3[nH]c4ccccc4c3C[C@@H]2C1=O [tadalafil]
- cardiac dynamics ([1]; mdx mice): improve cardiac dynamics
- muscle ischemia, injury and fatigue ([1]; mdx mouse, after a brief bout of exercise): alleviate muscle ischemia, as well as injury and fatigue
- normal blood flow regulation [2]: restored in eight of nine patients
